From publication PMC9380819 (ACS Omega, 2022)

Biological target: SARS-CoV-2 spike RBD (331–528 amino acids) (Severe acute respiratory syndrome coronavirus 2, UniProt P0DTC2)
Experiment: biochemical
Type: binding

CC(C)NCC(O)COc1ccc(CC(N)=O)cc1 (stereo not shown) [atenolol]
Kd: 406 ± 206 nM
